The list shows a part of the results. These are further read-outs of the screen, such as a control signal, another cell line or another target. No call is given for them. The list favours compounds with an active or inconclusive main result. Words in brackets tell the shape of the fitted curve; partial curves, single points and poor fits give uncertain potencies.

The test can be described thus: IkB Signaling. The following applies: ABC-DLBCL IkBa-CBG/CBR dual luciferase ratio (green luciferase fused to IkBa over red control in OCI-Ly3 lymphoma cells), 4 h; measured here: control luc red channel unless noted. In a few lines: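 Curves were fitted separately to fusion (green), unfused (red) and ratio luminescence, then classed by r2, magnitude and activity. Cells: OCI-Ly3, 4 h compound plus doxycycline at 37C; 10 uM MG-132 defined full response.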
For orientation: AC50 means the concentration at which the activity in the assay is half-maximal. Turning to `N/C(=N\c1nc2ccccc2o1)NC(=O)C(Cc1ccccc1)N1C(=O)c2ccccc2C1=O` (stereo not drawn), the AC50 was 5.01 µM [falling, full curve].
As to `CC(=O)Nc1cccc(-n2cc3c(c2-c2ccccc2Cl)c(=O)n(C)c(=O)n3C)c1`, the concentration at half-maximal activity (AC50) is 2.51 µM [rising, full curve].
On to `CC(C)(C)NC(=O)NC(=O)COc1ccccc1C#N`, for which the AC50 is 0.126 µM [falling, full curve].
In the case of `O=C(CCn1ccc2cc(S(=O)(=O)N3CCCC3)ccc21)NCc1ccccc1Br` it was 25.1 µM [falling, single point]; in that of `CCC(C)(C)n1nnnc1CN(Cc1ccco1)Cc1cc2cc3c(cc2[nH]c1=O)OCO3`, 31.6 µM [falling, partial curve]; in that of `Cc1cccc(C2CC(=O)Nc3cc4c(cc32)OCO4)c1` (stereo not drawn), 20 µM [falling, partial curve].
The value for `Cc1cc2ccccc2n1CCNC(=O)c1ccc(Br)cc1` was 39.8 µM [falling, partial curve]; that for `CCc1ccc(NC(=O)CN2C(=O)C3(SCC(=O)N3c3ccc(F)c(F)c3)c3ccccc32)cc1` (stereo not drawn) was 15.8 µM [falling, partial curve]; that for `CC(C)c1ccc(OCC(=O)N(Cc2cccs2)C2CCS(=O)(=O)C2)cc1` (stereo not drawn) was 31.6 µM [falling, single point].
In the case of `Cc1csc(NC(=O)c2ccccc2O)n1` it was 6.31 µM [falling, partial curve].
Regarding `Cc1c(C(=O)Nc2ccc(F)cc2)oc2ccc(S(=O)(=O)N3CCCC3)cc12`, the AC50 was 3.16 µM [falling, full curve, poor fit].
`COc1ccccc1OCC(=O)Nc1oc(-c2ccccc2)c(-c2ccccc2)c1C#N`: the AC50 was 10 µM [falling, partial curve].
For `CCC(C(=O)N1CCN(c2ccccc2)CC1)n1c(C)c2cnn(-c3ccccc3)c(=O)c2c1C` (stereo not drawn), the AC50 was 15.8 µM [falling, partial curve].
The value for `Cc1nnc(N2CCC(C(=O)NCCC(C)C)CC2)c2nn(-c3ccc(Cl)cc3)c(C)c12` was 7.94 µM [falling, partial curve].
For `COC(=O)c1ccc(NC(=O)CN2C(=O)CC(c3ccccc3)Sc3ccccc32)cc1` (stereo not drawn), the half-maximal activity concentration (AC50) is 0.2 µM [falling, full curve].
With `CSc1ccc(-c2nnc(NC(=O)c3ccc4c(c3)OCCO4)o2)cc1`, the AC50 was 39.8 µM [falling, single point].
As for `CC(=O)Nc1ccc(OCC(O)CN2CCN(c3ccc(C)c(Cl)c3)CC2)cc1` (stereo not drawn), the AC50 is 15.8 µM [falling, partial curve].
`CCOc1ccc(CNCc2c(C(=O)O)c(C)n(Cc3c(F)cccc3Cl)c2C)cc1OC`: the AC50 is 12.6 µM [falling, single point].

For the origin of these results see PubChem BioAssay AID445 (National Center for Advancing Translational Sciences (NCATS), 2006).
